This note sets out measurements from the supplement of paper PMC12873370.

Values joined by “and” are separate entries in the source; they are usually repeats but may differ in a detail not shown here. Equal values may be shown once. The list shows a part of the results. Single values are uncertain, as repeats are few or missing.

For assay [1], the system named is MEPP (mouse ovarian epithelium Trp53/Pten KO). The assay can be described thus: cell viability relative to untreated (fraction); higher = less growth inhibition. Particulars: 5 µM; 3 days.
In assay [2] the test system is PREPP (mouse prostate epithelium Trp53/Pten KO). The assay is described as above. Particulars: 5 µM; 3 days.

Regarding `O=C(Nc1cccc(Cl)c1)Nc1ncc(CCNc2ncnc3ccsc23)s1`, the cell viability in assay [1] was 0.798; in assay [2], 0.554.

For `N=C1NC(=O)/C(=C/c2ccc(O)cc2)S1`, the cell viability in assay [1] came to 1.02; in assay [2] it was 0.959.

Take `Nc1nc(OCc2cc(Br)cs2)c2[nH]cnc2n1`: the figures for the cell viability in assay [1] and in assay [2] were 1.05 and 0.919, respectively.

Turning to `Cn1c2ccccc2c2c3c(c4c5ccccc5n(CCC#N)c4c21)CNC3=O`, the cell viability was 0.572 in assay [1] and 0.836 in assay [2].

On to `Cc1[nH]c2ccccc2c1CCNCc1ccc(/C=C/C(=O)NO)cc1`, for which the cell viability in assay [1] was determined as 0.382; in assay [2] it was 0.995.

Turning to `O=C(NC[C@H](O)CN1CCc2ccccc2C1)c1ccnc(NC2CCC2)c1`, the cell viability worked out at 1.16 in assay [1] and 1.06 in assay [2].

In the case of `O=C(NCC(=O)N1CCCC1)Nc1ccc2cnccc2c1`, the cell viability stood at 1.15 in assay [1] and 1.13 in assay [2].

In the case of `O=C(CCCCCCNC(=O)c1cnc(N(c2ccccc2)c2ccccc2)nc1)NO`, the cell viability in assay [1] was determined as 0.782; in assay [2], 0.966.

In the case of `O=C(CCCCCCNC(=O)c1cnc(N(c2ccccc2)c2ccccc2Cl)nc1)NO`, the results for the cell viability in assay [1] and in assay [2] were 0.835 and 0.887, respectively.

Turning to `CCN(CCCOc1ccc2c(Nc3cc(CC(=O)Nc4cccc(F)c4)[nH]n3)ncnc2c1)CCOP(=O)(O)O`, the cell viability is 0.966 and 0.815 in assay [1]; 0.859 and 0.771 in assay [2].

Consider `CC(C)OC(=O)CCC/C=C\C[C@@H]1[C@@H](CC[C@@H](O)CCc2ccccc2)[C@H](O)C[C@@H]1O`, for which the results for the cell viability in assay [1] and in assay [2] were 0.993 and 0.94, respectively.

Turning to `CCC(C)SSc1ncc[nH]1` (stereo not given), the cell viability was found to be 0.585 in assay [1] and 0.823 in assay [2].

With `COc1cccc2c1c(O)c(C(=O)N(C)c1ccc(C(F)(F)F)cc1)c(=O)n2C`, the cell viability in assay [1] was determined as 0.98; in assay [2], 0.909.

Take `Fc1cc(-c2cccc3ncc(-c4cnn(C5CCNCC5)c4)nc23)cc(F)c1CN1CCOCC1`: the cell viability in assay [1] was 0.863 and 0.733; in assay [2] it was 0.791 and 0.718.

In the case of `O=C(COc1cccc2c(=O)[nH]ccc12)c1ccccc1`, the cell viability in assay [1] was determined as 0.803; in assay [2], 0.802.
